# Laboratory results reported in PMC7819943, “Rice protein-binding microarrays: a tool to detect cis-acting elements near promoter regions in rice”.
# Sequences of proteins named here, by UniProt entry; tags and fusion partners are left off.
# UniProt Q0JBA9, entry or part of it: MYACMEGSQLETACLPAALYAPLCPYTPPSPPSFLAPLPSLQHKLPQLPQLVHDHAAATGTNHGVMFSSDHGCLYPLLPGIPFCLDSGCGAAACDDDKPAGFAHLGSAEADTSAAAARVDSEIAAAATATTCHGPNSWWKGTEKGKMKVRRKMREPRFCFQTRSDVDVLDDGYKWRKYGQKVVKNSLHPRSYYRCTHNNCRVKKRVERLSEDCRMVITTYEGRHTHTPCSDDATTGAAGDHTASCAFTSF
# This is one part of the list.
# Molecular target: OsWRKY34 (Oryza sativa, UniProt Q0JBA9 1-250)
# Assay: protein-binding microarray (RPBM); PBS, 2% BSA, 51.3 ng/ul salmon testes DNA, 50 uM zinc acetate, 200 nM TF, 25 C, 1 h; high values mean tight binding
# Conditions: protein: recombinant; tags: N-terminal polyhistidine and DsRed monomer fusion (pET32a); label: CyDye5-dUTP incorporated in the synthesized complementary strand; 3' TTTTT single-stranded linker to array surface; dsDNA, one strand shown
# In short: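 A custom Agilent array was converted to double-stranded form by primer extension with Cy5-dUTP and blocked with 2% BSA. Protein at 200 nM in PBS with 2% BSA, salmon testes DNA and 50 µM zinc acetate was applied for 1 h at 25 °C, followed by washing. The proteins were polyhistidine–DsRed N-terminal fusions of transcription factors, expressed in E. coli BL21-CodonPlus and Ni–NTA-purified. The binding signal is per-feature fluorescence intensity (arbitrary units) from an Axon 4000B scanner.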
row,Sequence,binding signal
1,CACTATCATATTGGGTAATTAACTTGGGTAAACTTCATCGCGGAGTCACCTAGTGCAG,8190 fluorescence intensity (a.u.)
2,CGTTCGCTTCAGCCTTCACGTACGCATCATCATGCATGACCGGAGTCACCTAGTGCAG,8420 fluorescence intensity (a.u.)
3,CACTCCTCGCCGTCTTGTTTCTTCTTCGTCTGGGTGGTTGCGGAGTCACCTAGTGCAG,13000 fluorescence intensity (a.u.)
4,ATATGTTACTCTCGCATCATATCCCCGGTTCTGTATGACACGGAGTCACCTAGTGCAG,10800 fluorescence intensity (a.u.)
5,TCGTCATTAGGCTTCGCTCAAGAGCTTCGCCCTACGGCTTCGGAGTCACCTAGTGCAG,8070 fluorescence intensity (a.u.)
6,GGGAGTCACAGGAGGTAGATGGTGGGAGGGATCTAGGAAGCGGAGTCACCTAGTGCAG,8880 fluorescence intensity (a.u.)
7,AGACGAGACGCCTTCCGCCTTTCTTCTCCCAACGCTTTCCCGGAGTCACCTAGTGCAG,8130 fluorescence intensity (a.u.)
8,TAGCACCGTGTTGTACTGTTGTTCCACTCACTCGCTCGTGCGGAGTCACCTAGTGCAG,8030 fluorescence intensity (a.u.)
9,AACCACAATAATCACACACTGATTCCACCGCCGGCTTCTCCGGAGTCACCTAGTGCAG,9530 fluorescence intensity (a.u.)
10,GGATTCGTGCTCTGCAGCTTAAGTTTAGTGCGGCCTTCTACGGAGTCACCTAGTGCAG,11200 fluorescence intensity (a.u.)
11,CATCCGATTTGTGTGTGCCCGCCACTGCCCTGCTGCCTCACGGAGTCACCTAGTGCAG,9450 fluorescence intensity (a.u.)
12,TCGCTTTGTTTACGCGGCGCGCCTCTCTTTTTCCTTAGCCCGGAGTCACCTAGTGCAG,9770 fluorescence intensity (a.u.)
13,CGGCTTTCCCCACTGGTTCTACAGGCATCCGCGCGGATTCCGGAGTCACCTAGTGCAG,8710 fluorescence intensity (a.u.)
14,ACCCACCCCTGCTAGGTCCGCCTCCGCCGCCGGCCACCGCCGGAGTCACCTAGTGCAG,11400 fluorescence intensity (a.u.)
15,CTCCTTTATCTAACCAAATCTCAGCCATCTGTTTTTATTACGGAGTCACCTAGTGCAG,8500 fluorescence intensity (a.u.)
16,CCTCGCATCGCATCCCCACCTCCGCCGATCCCGCCGTCTCCGGAGTCACCTAGTGCAG,8520 fluorescence intensity (a.u.)
17,ACTCATGAATCATGATATCCTTGCCGTCTCAAAATCCTGTCGGAGTCACCTAGTGCAG,9300 fluorescence intensity (a.u.)
18,ACGTATTTTAGTGTTTGCCAATTTCTTTTCGAATTTTAATCGGAGTCACCTAGTGCAG,13700 fluorescence intensity (a.u.)
19,GCTAGCTTCGTTCGTCCGTGAGCCGCACGATCCACATCCACGGAGTCACCTAGTGCAG,10100 fluorescence intensity (a.u.)
20,CTCGACTGTTACCTCGATATCTCACACAAAACACACTCAACGGAGTCACCTAGTGCAG,9460 fluorescence intensity (a.u.)
21,TAACCTGGCGCCAATGGCGAACGCACCGCACCGCGAGACACGGAGTCACCTAGTGCAG,8360 fluorescence intensity (a.u.)
22,ACGCCGTTGATTTTTTTAAACATATTTGACCGTTCGTCTTCGGAGTCACCTAGTGCAG,11400 fluorescence intensity (a.u.)
23,GGGATCGGCCTCCGAGGGCTCCGACGCGTCGGTAGCGGCGCGGAGTCACCTAGTGCAG,8130 fluorescence intensity (a.u.)
24,ATCTTTTGGCCGTACTTTTTTTCATCTGGGTCCCTTGCCGCGGAGTCACCTAGTGCAG,8680 fluorescence intensity (a.u.)
25,GTCAGCTCACGTGGACCCACAATCGCATGTCCCAATCAAACGGAGTCACCTAGTGCAG,8140 fluorescence intensity (a.u.)
26,AATTAGTTCCAATATCCTTGCTGGTGTGATTCACCTCATACGGAGTCACCTAGTGCAG,8400 fluorescence intensity (a.u.)
27,GATGGCTTCGATTTGCTGTGTTACTTCTTTTTTCTAGTTTCGGAGTCACCTAGTGCAG,16900 fluorescence intensity (a.u.)

# Single entries from the list.
# For binding signal, TAACCTGGCGCCAATGGCGAACGCACCGCACCGCGAGACACGGAGTCACCTAGTGCAG is listed with 8360 fluorescence intensity (a.u.)
# For binding signal, ACCCACCCCTGCTAGGTCCGCCTCCGCCGCCGGCCACCGCCGGAGTCACCTAGTGCAG is listed with 11400 fluorescence intensity (a.u.)
# For binding signal, GCTAGCTTCGTTCGTCCGTGAGCCGCACGATCCACATCCACGGAGTCACCTAGTGCAG is listed with 10100 fluorescence intensity (a.u.)
# For binding signal, ACGTATTTTAGTGTTTGCCAATTTCTTTTCGAATTTTAATCGGAGTCACCTAGTGCAG is listed with 13700 fluorescence intensity (a.u.)

# The list goes on:

row,Sequence,binding signal
1,GGTTTCTGTGTCCAACGTTTGACCATCCGTCTTATTTGAACGGAGTCACCTAGTGCAG,8040 fluorescence intensity (a.u.)
2,GAATGTTATGTAATTGGGTCGGATTGGTATGCATATTGAGCGGAGTCACCTAGTGCAG,8740 fluorescence intensity (a.u.)
3,GGAAGACCAACCCCACGGCCATTTCTCCACGCAACCAAACCGGAGTCACCTAGTGCAG,8830 fluorescence intensity (a.u.)
4,GCAAGGTGTACCCGCAGTTCTCACGGTTACCACCATTTTCCGGAGTCACCTAGTGCAG,8430 fluorescence intensity (a.u.)
5,GGGGTTTGTTGTATTGAATGAATGAACTTCCAGCTTTGCCCGGAGTCACCTAGTGCAG,8300 fluorescence intensity (a.u.)
6,GATGGCGTGGTGGGTATAGTTCTCCTCCCGTCGTCGACGCCGGAGTCACCTAGTGCAG,9360 fluorescence intensity (a.u.)
7,GCTGAACATCAAATTCCATTATTATAGCATCCATGTCCATCGGAGTCACCTAGTGCAG,8500 fluorescence intensity (a.u.)
8,ATTGGAGCTGTGTTGACCCAAAATGGACACCCAATTGCCTCGGAGTCACCTAGTGCAG,8920 fluorescence intensity (a.u.)
9,TTGCTGTCTATGTGAATTTCCCTCTGCTGTTGCTGTTTATCGGAGTCACCTAGTGCAG,9520 fluorescence intensity (a.u.)
10,CCCCACCCAGCGTCTCTTCTCTTCTCTTCTTTTTTATTGCCGGAGTCACCTAGTGCAG,8640 fluorescence intensity (a.u.)
11,AATTGTATTTCTATATGGACTCTATACTCTACTTCTAATACGGAGTCACCTAGTGCAG,8450 fluorescence intensity (a.u.)
12,CAATCTTGGGTGGCAACTGATTTGGCTGGTTCTTTTTGTTCGGAGTCACCTAGTGCAG,9160 fluorescence intensity (a.u.)
13,AATACAATAGTTTTTCTGCACCATGCCTGATCACATATTCCGGAGTCACCTAGTGCAG,8040 fluorescence intensity (a.u.)
14,TCTGTCCCTCAATCCCGCGACGCCGCCGCCGTTCTGCTCCCGGAGTCACCTAGTGCAG,10000 fluorescence intensity (a.u.)
15,TTACCCGTGCGGCTCCTCGTGTCGGACCCCATGACCGGCGCGGAGTCACCTAGTGCAG,8990 fluorescence intensity (a.u.)
16,TTTGCGGGTGGAGTTTTTTAAGTTTTTGGATTTCCTGTTTCGGAGTCACCTAGTGCAG,11700 fluorescence intensity (a.u.)
17,GCTCCAGATCATCGTGCACAGCCAGCACCACCACGGCCGGCGGAGTCACCTAGTGCAG,8500 fluorescence intensity (a.u.)
18,ATGTGGTAGTTCCTGTAAAGATTTAGTCAACGTATGTGGTCGGAGTCACCTAGTGCAG,11000 fluorescence intensity (a.u.)
19,AAAGCACCTCTACCTACAGTCTTCGCGTGTACTCTTATACCGGAGTCACCTAGTGCAG,12700 fluorescence intensity (a.u.)
20,CATGTGAGAAAAGTCAACGGCGTCATCTATTAAAAAACGGCGGAGTCACCTAGTGCAG,9950 fluorescence intensity (a.u.)
21,GGATGTTGAAAACCGGTAGACCGGCGCGGGGTGGGAGTCGCGGAGTCACCTAGTGCAG,10000 fluorescence intensity (a.u.)
22,GCACCACATCGCTTCCGGCCGTGCCAGTCACGCCCGTGCTCGGAGTCACCTAGTGCAG,9200 fluorescence intensity (a.u.)
23,GCTGGGCTCCATCTTTCGTTTTTTGGGCCGTCCATCATGTCGGAGTCACCTAGTGCAG,9100 fluorescence intensity (a.u.)
24,AACATTTTACACTTTCCTTGAGTTTTAGAAGGATTTACCTCGGAGTCACCTAGTGCAG,9440 fluorescence intensity (a.u.)
25,AGCAAGCTACATGGTTAGTCACCTCTACCAATTGAATTTCCGGAGTCACCTAGTGCAG,8800 fluorescence intensity (a.u.)
26,TGGGGTGGAGGGGCGAGCAACGGGCGTAGCAAGCCGAAGACGGAGTCACCTAGTGCAG,9660 fluorescence intensity (a.u.)
27,ATTTTAGCCTCTATTTCCCTTCTTTTCTTACTTTTTTTTACGGAGTCACCTAGTGCAG,10600 fluorescence intensity (a.u.)
